# Results of single-concentration screens

Sequences of proteins named here, by UniProt entry; tags and fusion partners are left off. Residues count along the entry.
UniProt P9WFT3, whole entry: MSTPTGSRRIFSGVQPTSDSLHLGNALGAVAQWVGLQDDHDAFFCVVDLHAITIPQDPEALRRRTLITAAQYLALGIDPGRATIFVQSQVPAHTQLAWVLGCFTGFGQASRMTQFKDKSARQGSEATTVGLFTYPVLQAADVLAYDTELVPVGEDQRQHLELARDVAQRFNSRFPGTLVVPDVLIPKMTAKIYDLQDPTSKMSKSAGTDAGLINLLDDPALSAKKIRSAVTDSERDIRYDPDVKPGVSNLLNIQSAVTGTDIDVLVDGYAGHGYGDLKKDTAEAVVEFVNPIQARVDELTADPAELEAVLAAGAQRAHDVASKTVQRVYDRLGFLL
UniProt I6X8D2, whole entry: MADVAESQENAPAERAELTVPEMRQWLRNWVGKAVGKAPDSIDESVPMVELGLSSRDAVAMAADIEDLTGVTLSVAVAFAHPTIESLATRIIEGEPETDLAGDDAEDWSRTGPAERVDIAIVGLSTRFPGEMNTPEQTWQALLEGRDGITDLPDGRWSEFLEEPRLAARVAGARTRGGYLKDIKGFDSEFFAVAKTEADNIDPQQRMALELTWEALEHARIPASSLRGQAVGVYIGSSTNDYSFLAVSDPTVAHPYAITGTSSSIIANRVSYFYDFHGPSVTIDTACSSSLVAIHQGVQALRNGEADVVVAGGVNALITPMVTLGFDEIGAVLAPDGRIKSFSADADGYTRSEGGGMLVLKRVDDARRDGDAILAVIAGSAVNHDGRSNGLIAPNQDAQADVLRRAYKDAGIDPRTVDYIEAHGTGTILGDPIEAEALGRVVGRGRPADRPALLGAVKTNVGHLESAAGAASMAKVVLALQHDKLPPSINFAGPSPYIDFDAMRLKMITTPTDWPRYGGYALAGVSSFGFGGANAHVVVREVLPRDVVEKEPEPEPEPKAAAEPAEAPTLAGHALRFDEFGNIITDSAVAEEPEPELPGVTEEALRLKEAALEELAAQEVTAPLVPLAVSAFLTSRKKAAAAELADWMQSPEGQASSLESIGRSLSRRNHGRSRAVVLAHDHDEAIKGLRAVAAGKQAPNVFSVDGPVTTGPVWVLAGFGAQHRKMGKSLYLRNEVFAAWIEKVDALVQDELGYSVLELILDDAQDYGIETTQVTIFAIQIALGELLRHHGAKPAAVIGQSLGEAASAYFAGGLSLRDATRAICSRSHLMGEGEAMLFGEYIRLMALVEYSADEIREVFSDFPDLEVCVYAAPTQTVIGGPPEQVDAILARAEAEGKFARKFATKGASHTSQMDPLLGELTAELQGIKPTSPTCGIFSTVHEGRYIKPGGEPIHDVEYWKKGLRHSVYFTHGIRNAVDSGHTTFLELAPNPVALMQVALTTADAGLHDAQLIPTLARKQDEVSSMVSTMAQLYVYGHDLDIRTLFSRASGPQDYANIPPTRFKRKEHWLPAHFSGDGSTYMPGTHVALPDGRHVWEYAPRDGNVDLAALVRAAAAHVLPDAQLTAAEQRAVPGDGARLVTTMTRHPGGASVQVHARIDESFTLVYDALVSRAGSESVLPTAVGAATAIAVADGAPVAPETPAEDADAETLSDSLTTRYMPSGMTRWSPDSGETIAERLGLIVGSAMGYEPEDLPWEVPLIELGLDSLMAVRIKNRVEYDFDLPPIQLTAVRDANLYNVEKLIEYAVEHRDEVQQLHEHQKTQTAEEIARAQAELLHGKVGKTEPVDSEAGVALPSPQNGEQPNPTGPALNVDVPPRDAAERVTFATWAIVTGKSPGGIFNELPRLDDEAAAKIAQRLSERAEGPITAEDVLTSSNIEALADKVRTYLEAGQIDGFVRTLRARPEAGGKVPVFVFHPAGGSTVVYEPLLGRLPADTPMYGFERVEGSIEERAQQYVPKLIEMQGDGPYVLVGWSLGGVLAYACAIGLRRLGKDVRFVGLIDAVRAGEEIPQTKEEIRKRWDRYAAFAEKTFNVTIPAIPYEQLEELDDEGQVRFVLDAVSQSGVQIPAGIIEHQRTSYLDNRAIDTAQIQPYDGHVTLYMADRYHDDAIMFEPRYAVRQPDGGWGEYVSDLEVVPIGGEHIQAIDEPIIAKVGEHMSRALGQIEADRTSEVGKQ
UniProt A4I591, 1-473: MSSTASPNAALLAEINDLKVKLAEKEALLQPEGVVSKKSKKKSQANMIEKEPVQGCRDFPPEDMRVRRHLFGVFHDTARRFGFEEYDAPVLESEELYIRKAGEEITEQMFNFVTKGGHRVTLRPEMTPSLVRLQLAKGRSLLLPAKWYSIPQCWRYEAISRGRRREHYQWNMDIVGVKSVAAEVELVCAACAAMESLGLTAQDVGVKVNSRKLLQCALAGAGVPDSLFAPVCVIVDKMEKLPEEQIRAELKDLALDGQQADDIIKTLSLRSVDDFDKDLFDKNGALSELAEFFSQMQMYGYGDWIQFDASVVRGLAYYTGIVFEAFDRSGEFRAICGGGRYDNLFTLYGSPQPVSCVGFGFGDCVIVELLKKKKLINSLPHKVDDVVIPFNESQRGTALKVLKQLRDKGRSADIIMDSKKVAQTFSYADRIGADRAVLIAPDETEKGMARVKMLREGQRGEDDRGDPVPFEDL
UniProt Q4DA54, 1-478: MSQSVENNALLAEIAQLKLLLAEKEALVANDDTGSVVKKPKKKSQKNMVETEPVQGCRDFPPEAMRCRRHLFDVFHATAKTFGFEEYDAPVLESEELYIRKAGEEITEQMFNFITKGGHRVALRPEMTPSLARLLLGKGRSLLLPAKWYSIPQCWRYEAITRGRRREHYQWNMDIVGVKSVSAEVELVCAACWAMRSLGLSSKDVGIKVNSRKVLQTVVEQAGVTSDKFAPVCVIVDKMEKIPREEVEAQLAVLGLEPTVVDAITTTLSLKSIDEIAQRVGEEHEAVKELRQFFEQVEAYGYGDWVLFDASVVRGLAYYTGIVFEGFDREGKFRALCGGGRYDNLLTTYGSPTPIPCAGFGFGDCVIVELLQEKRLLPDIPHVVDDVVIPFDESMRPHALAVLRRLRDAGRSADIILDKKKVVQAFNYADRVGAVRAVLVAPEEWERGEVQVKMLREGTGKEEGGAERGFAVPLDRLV

Measurements from “University of Dundee, Small-Polar-MMV Screening Library” (2021), ChEMBL document CHEMBL3988442.

Each number is a percent effect as filed. How 0% and 100% were set is not recorded. Most values in the screen are low, and negative values occur. The compounds are a random part of those screened.

MtTrpRS: 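Enzyme assay of tryptophanyl-tRNA synthetase; the read-out is not stated. Target: Tryptophan-tRNA ligase, Mycobacterium tuberculosis (UniProt P9WFT3). Tested at 10 µM. Direction is not recorded; retested compounds ran higher, which suggests that high means inhibition. Size under these conditions: about 65,000 compounds, about 64 of them at 50% or above in at least one test.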
Pks13 thioesterase: 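Polyketide synthase Pks13, Mycobacterium tuberculosis (UniProt I6X8D2). Enzyme assay of the thioesterase domain of polyketide synthase 13; the read-out is not stated. Tested at 30 µM. The record gives no direction; the compounds picked for IC50 retests had high values, so higher reads as stronger inhibition. Of about 67,000 compounds tested this way, about 300 (0.46%) reached 50% or more in at least one test.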
LiHisRS: 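Enzyme assay of histidyl-tRNA synthetase; the read-out is not stated. Target: Histidine-tRNA ligase, Leishmania infantum (UniProt A4I591). Compounds at 30 µM. Higher reads as stronger inhibition (inferred: compounds with an IC50 in retests scored well above the rest). The assay is labelled LdHisRS but filed under L. infantum. About 69,000 compounds were tested under these conditions; 0.6% (about 410) showed 50% or more at least once.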
TcHisRS: 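Enzyme assay of histidyl-tRNA synthetase; the read-out is not stated. Target: Histidine-tRNA ligase, Trypanosoma cruzi CL Brener (UniProt Q4DA54). Compounds at 30 µM. The record gives no direction; compounds that gave an IC50 in retests scored well above the rest, so higher reads as stronger inhibition. Size under these conditions: about 69,000 compounds, about 31 of them at 50% or above in at least one test.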

{"structure": "Nc1nccnc1C(=O)NCCCNc1ccc(C(F)(F)F)cn1", "MtTrpRS": -5.408, "Pks13 thioesterase": 12.91, "LiHisRS": 18.35, "TcHisRS": 4.118}
{"structure": "O=C(CN1CCOC(Cn2cccn2)C1)Nc1ccncc1", "stereo": "stereo not given", "MtTrpRS": -1.709, "Pks13 thioesterase": -4.439, "LiHisRS": 4.959, "TcHisRS": 0.8403}
{"structure": "Cc1nc2cc(C(=O)N3CCn4c(nnc4C4CC4)C3)ccc2s1", "MtTrpRS": -7.104, "Pks13 thioesterase": -11.11, "LiHisRS": 4.255, "TcHisRS": 2.632}
{"structure": "CS(=O)(=O)N[C@H]1CN(C(=O)c2cscn2)[C@@H]2CCCO[C@H]12", "MtTrpRS": 1.91, "Pks13 thioesterase": -4.971, "LiHisRS": 8.257, "TcHisRS": 9.244}
{"structure": "COC(=O)CCn1ccc(=O)c2ccccc21", "MtTrpRS": 0.07178, "Pks13 thioesterase": -5.55, "LiHisRS": 10.71, "TcHisRS": 1.754}
{"structure": "CCc1nc(CNCC2CCCN2c2cc(NC)ncn2)cs1", "stereo": "stereo not given", "MtTrpRS": 1.707, "Pks13 thioesterase": -3.013, "LiHisRS": -4.255, "TcHisRS": 5.344}
{"structure": "Cc1ccc(CNCC2Cn3nnc(-c4cnn(C)c4)c3CO2)o1", "stereo": "stereo not given", "MtTrpRS": 0.2513, "Pks13 thioesterase": 6.573, "LiHisRS": -2.655, "TcHisRS": 5.6}
{"structure": "Cn1ccnc1CN1CCCN(C(=O)c2ccc(Cl)o2)CC1", "MtTrpRS": 3.216, "Pks13 thioesterase": -27.87, "LiHisRS": -4.545, "TcHisRS": 0.7576}
{"structure": "CS(=O)(=O)CCC(=O)N(CCc1cccc(F)c1)C1CC1", "MtTrpRS": 7.195, "Pks13 thioesterase": 3.622, "LiHisRS": 16.33, "TcHisRS": 12}
{"structure": "O=C(NCCc1cccnc1)c1ccc2nccn2c1", "MtTrpRS": -0.6536, "Pks13 thioesterase": -0.4039, "LiHisRS": 15.56, "TcHisRS": 4.242}
{"structure": "CCN(CCc1nccs1)C(=O)c1ncoc1C", "MtTrpRS": 0.8258, "Pks13 thioesterase": -11.3, "LiHisRS": 3.175, "TcHisRS": 0.5128}
{"structure": "Cc1ccc(OCC(=O)N2CCOCC(O)(CN3CCCC3)C2)cc1C", "stereo": "stereo not given", "MtTrpRS": 3.673, "Pks13 thioesterase": 3.864, "LiHisRS": 12.39, "TcHisRS": -2.679}
{"structure": "CCc1ccc(C(=O)N(c2cccnc2)C(C)C)cc1S(C)(=O)=O", "MtTrpRS": -2.2, "Pks13 thioesterase": -16.61, "LiHisRS": 14.29, "TcHisRS": 2.941}
{"structure": "Cc1occc1C(=O)NCc1cccnc1N(C)C", "MtTrpRS": -0.000005, "Pks13 thioesterase": -11.58, "LiHisRS": 16.51, "TcHisRS": 5.294}
{"structure": "CCc1nc(N)nc(NCCC(=O)NC2CCCCC2)c1C", "MtTrpRS": 0.7988, "Pks13 thioesterase": -13.61, "LiHisRS": 11.11, "TcHisRS": 13.94}
{"structure": "Cc1nn(-c2ccccc2)cc1C(=O)N1CCCC1c1cnn(C)c1", "stereo": "stereo not given", "MtTrpRS": -2.257, "Pks13 thioesterase": -8.072, "LiHisRS": -3.571, "TcHisRS": 1.744}
{"structure": "Cc1ccc(NC2CCN(C(=O)c3cc(C)no3)CC2)nn1", "MtTrpRS": -2.392, "Pks13 thioesterase": -11.85, "LiHisRS": 22.02, "TcHisRS": 9.412}
{"structure": "Cc1ccc(-c2ccccc2CC2(C(=O)NC(C)C)CCCNC2)cc1", "stereo": "stereo not given", "MtTrpRS": -0.5875, "Pks13 thioesterase": -11.14, "LiHisRS": 16.78, "TcHisRS": 5.65}
{"structure": "O=C(c1cccn1Cc1cccs1)N1CCN(C(=O)C2CC2)CC1", "MtTrpRS": 1.998, "Pks13 thioesterase": -1.444, "LiHisRS": 19.18, "TcHisRS": 1.527}
{"structure": "COc1ccc(CNC(=O)CNc2cc3c(cc2Cl)OCCCO3)cc1", "MtTrpRS": 0.1676, "Pks13 thioesterase": -19.7, "LiHisRS": 9.434, "TcHisRS": 0.8475}
{"structure": "CNC(=O)CN1CCO[C@H]2CN(C(=O)C3CC3)C[C@H]21", "MtTrpRS": -5.489, "Pks13 thioesterase": -29, "LiHisRS": 12, "TcHisRS": 6.897}
{"structure": "Cc1ccccc1C(C(=O)NCCN1CCC(CO)CC1)N(C)C", "stereo": "stereo not given", "MtTrpRS": -2.436, "Pks13 thioesterase": -18.39, "LiHisRS": 12.9, "TcHisRS": 6.173}
{"structure": "COc1cccc(CN2CCC(c3cc(O)nc(C)n3)C2)c1", "stereo": "stereo not given", "MtTrpRS": -0.5853, "Pks13 thioesterase": -34.88, "LiHisRS": 19.44, "TcHisRS": -0.5405}
{"structure": "CN1CCN(C(=O)Cc2ccccn2)Cc2cccnc21", "MtTrpRS": 0.8835, "Pks13 thioesterase": -32.46, "LiHisRS": 31.51, "TcHisRS": 7.921}
{"structure": "CC1CCCCN1C(=O)COCc1nc(-c2ccncc2)no1", "stereo": "stereo not given", "MtTrpRS": 4.444, "Pks13 thioesterase": -14.82, "LiHisRS": 15.93, "TcHisRS": 1.754}
{"structure": "CCN1CCCC(C)(C(=O)NCCc2n[nH]c(=O)[nH]2)C1", "stereo": "stereo not given", "MtTrpRS": -4.285, "Pks13 thioesterase": -8.91, "LiHisRS": 3.125, "TcHisRS": -5.587}
{"structure": "COc1cccc2c1OCCCN(c1nc3c(c(=O)[nH]1)CCNCC3)C2", "MtTrpRS": 2.973, "Pks13 thioesterase": -7.102, "LiHisRS": 19.05, "TcHisRS": 3.59}
{"structure": "CSCC(CCO)NC(=O)Nc1ccc(C)cc1Br", "stereo": "stereo not given", "MtTrpRS": 4.079, "Pks13 thioesterase": -3.564, "LiHisRS": 18.07, "TcHisRS": 7.317}

Some entries from above, unchanged:

structure	MtTrpRS	Pks13 thioesterase	LiHisRS	TcHisRS
CSCC(CCO)NC(=O)Nc1ccc(C)cc1Br (stereo not given)	4.079%	-3.564%	18.07%	7.317%
Cc1ccc(NC2CCN(C(=O)c3cc(C)no3)CC2)nn1	-2.392%	-11.85%	22.02%	9.412%
CS(=O)(=O)N[C@H]1CN(C(=O)c2cscn2)[C@@H]2CCCO[C@H]12	1.91%	-4.971%	8.257%	9.244%